Structures were worked out from names or drawings and are uncertain.
Legend:
Assay in all cases: Non-anchorage-dependent cell growth inhibition, spheroid 3D cell culture (CellTiter Glo 2.0)
[1] = system: human G13D mutant KRAS-positive colorectal cancer line LoVo; conditions: read-out: G13D (LoVo) IC50, 3D spheroid, 6 days
Description: (§1) Test Example 2: Evaluation of non-anchorage-dependent cell growth inhibitory effect on human G12V mutant KRAS-positive pancreatic cancer line PA-TU-8902, human G12D mutant KRAS-positive pancreatic cancer line PK-59, human G12C mutant KRAS-positive pancreatic cancer line MIA PaCa-2, human G12C mutant KRAS-positive lung cancer line NCI-H358, human G12D mutant KRAS-positive colorectal cancer line GP2d, human G13D mutant KRAS-positive colorectal cancer line LoVo, or human wild-type KRAS gene amplification-positive gastric cancer line MKN1 The non-anchorage-dependent cell growth inhibitory effect of test compounds was evaluated by spheroid 3D cell culture.
(§2) PA-TU-8902 cells or GP2d cells (ECACC, 95090714), Pk-59 cells (RIKEN BRC, RCB1901), MIA PaCa-2 cells (RIKEN BRC, RCB2094), NCI-H358 cells (ATCC, CRL-5807), LoVo cells (ATCC, CCL-229), or MKN1 cells (JCRB, JCRB0252) were seeded on low-cell-adhesive round bottom 384-well plates (Prime Surface: from Sumitomo Bakelite) at 36 µL/well to give 5 × 10^2 cells per well, and the PA-TU-8902 cells were cultured under the same conditions as in Test Example 1. The GP2d cells were cultured using DMEM medium containing 10% fetal bovine serum in the presence of 5% CO2 at 37°C. The PK-59 cells, MIA PaCa-2 cells, LoVo cells, NCI-H358 cells, or MKN1 cells were cultured using RPMI-1640 medium (from Sigma-Aldrich) containing 10% fetal bovine serum in the presence of 5% CO2 at 37°C.
(§3) The next day, the test compounds (10 points having final concentrations in the range of 10 µM to 0.03 nM) and DMSO, which was the solvent for the test compounds, as a negative control were diluted 100-fold with a fresh medium and were added at 4 µL to each well containing the PA-TU-8902 cells, PK-59 cells, MIA PaCa-2 cells, LoVo cells, NCI-H358 cells, or MKN1 cells. After culturing in the presence of 5% CO2 at 37°C for 6 days, CellTiter Glo 2.0 (from Promega) was added at 20 µL per well. After stirring with a plate mixer at room temperature for 1 hour, the luminescent signals were measured with ARVO X3 (from PerkinElmer).
(§4) With the signaling value in treatment with DMSO taken as a survival rate of 100% and with the signaling value in the medium alone without cells taken as a survival rate of 0%, the 50% inhibitory concentration (IC50) was calculated by Sigmoid-Emax model nonlinear regression analysis.

[2] = system: human G12V mutant KRAS-positive pancreatic cancer line PA-TU-8902; conditions: read-out: G12V (PA-TU-8902) IC50; PA-TU-8902, 3D spheroid, 6 days
Description: as §1, §2, §3, §4

[3] = system: human G12C mutant KRAS-positive pancreatic cancer line MIA PaCa-2; conditions: read-out: G12C (MIA PaCa-2) IC50; MIA PaCa-2, 3D spheroid, 6 days
Description: as §1, §2, §3, §4

[4] = system: human G12D mutant KRAS-positive pancreatic cancer line PK-59; conditions: read-out: G12D (PK-59) IC50; PK-59, 3D spheroid, 6 days
Description: as §1, §2, §3, §4

IC50 [1]	IC50 [2]	IC50 [3]	IC50 [4]	Structure (SMILES)
31 nM	12 nM	2.9 nM	6 nM	CCN1CCN(c2nc(N3CC[C@H]3C(N)=O)c3cc(C4CC4)c(-c4c(C)c(F)cc5[nH]ncc45)c(OCc4ccc(C(=O)N5CCC6(CCC(CC#Cc7cncc(N8CCC(=O)NC8=O)c7)CC6)CC5)cc4)c3n2)C[C@@H]1C
47 nM	12 nM	4.9 nM	7.3 nM	Cc1c(OCCC2CCC3(CC2)CCN(C(=O)c2ccc(COc4c(-c5c(C)c(F)cc6[nH]ncc56)c(C5CC5)cc5c(N6CC[C@H]6C(N)=O)nc(N6CCN(C)C7(CC7)C6)nc45)cc2)CC3)cncc1N1CCC(=O)NC1=O
230 nM	29 nM	6.9 nM	30 nM	Cc1c(F)cc2[nH]ncc2c1-c1c(C2CC2)cc2c(N3CC[C@H]3C(N)=O)nc(N3CCC4(CCN(C)C4)CC3)nc2c1OCc1ccc(C(=O)N2CCC3(CCC(CCOc4cncc(N5CCC(=O)NC5=O)c4)CC3)CC2)cc1
35 nM	7.3 nM	2.2 nM	5.6 nM	Cc1c(F)cc2[nH]ncc2c1-c1c(C2CC2)cc2c(N3CC[C@H]3C(N)=O)nc(N3CC(F)(CN(C)C)C3)nc2c1OCc1ccc(C(=O)N2CCC3(CCC(CCOc4cncc(N5CCC(=O)NC5=O)c4)CC3)CC2)cc1
42 nM	6.7 nM	3 nM	12 nM	Cc1c(F)cc2[nH]ncc2c1-c1c(C2CC2)cc2c(N3CC[C@H]3C(N)=O)nc(OCC(C)(C)CN(C)C)nc2c1OCc1ccc(C(=O)N2CCC3(CCC(CCCn4cc(N5CCC(=O)NC5=O)cn4)CC3)CC2)cc1
39 nM	13 nM	9.7 nM	11 nM	CO[C@@H](C)COc1nc(N2CC[C@H]2C(N)=O)c2cc(C3CC3)c(-c3c(C)c(F)cc4[nH]ncc34)c(OCc3ccc(C(=O)N4CCC5(CCC(CCOc6nccc(N7CCC(=O)NC7=O)c6F)CC5)CC4)cc3)c2n1
170 nM	41 nM	11 nM	41 nM	Cc1c(F)cc2[nH]ncc2c1-c1c(C2CC2)cc2c(N3CC[C@H]3C(N)=O)nc(OC3CCN(C)CC3)nc2c1OCc1ccc(C(=O)N2CCC3(CCC(CC#Cc4cncc(N5CCC(=O)NC5=O)c4)CC3)CC2)cc1
230 nM	20 nM	9.3 nM	17 nM	Cc1c(F)cc2[nH]ncc2c1-c1c(C2CC2)cc2c(N3CC[C@H]3C(N)=O)nc(OCC(C)(C)CN(C)C)nc2c1OCc1ccc(C(=O)N2CCC3(CCC(CCOc4nnc(N5CCC(=O)NC5=O)n4C)CC3)CC2)cc1
91 nM	16 nM	4.2 nM	15 nM	Cc1c(F)cc2[nH]ncc2c1-c1c(C2CC2)cc2c(N3CC[C@H]3C(N)=O)nc(N3CCC(CN(C)C)CC3)nc2c1OCc1ccc(C(=O)N2CCC3(CCC(CCOc4cncc(N5CCC(=O)NC5=O)c4)CC3)CC2)cc1
40 nM	5.7 nM	2.8 nM	4.8 nM	Cc1c(F)cc2[nH]ncc2c1-c1c(C2CC2)cc2c(N3CC[C@H]3C(N)=O)nc(OCC(C)(C)CO)nc2c1OCc1ccc(C(=O)N2CCC3(CCC(CCOc4cncc(N5CCC(=O)NC5=O)c4)CC3)CC2)cc1
47 nM	32 nM	24 nM	18 nM	Cc1c(F)cc2[nH]ncc2c1-c1c(C2CC2)cc2c(N3CC[C@H]3C(N)=O)nc(OCC3(CN(C)C)CCC3)nc2c1OCc1ccc(C(=O)N2CCC3(CCC(CCOc4cncc(N5CCC(=O)NC5=O)c4)CC3)CC2)cc1

Continued, compound first:

Structure (SMILES)	IC50 [1]	IC50 [2]	IC50 [3]	IC50 [4]
Cc1c(F)cc2[nH]ncc2c1-c1c(C2CC2)cc2c(N3CC[C@H]3C(N)=O)nc(OCC(C)(C)CN(C)C)nc2c1OCc1ccc(C(=O)N2CCC3(CC2)CN(c2cc4c(cc2F)c(N2CCC(=O)NC2=O)nn4C)CCO3)cc1	130 nM	11 nM	2.8 nM	11 nM
Cc1c(F)cc2[nH]ncc2c1-c1c(C2CC2)cc2c(N3CC[C@H]3C(N)=O)nc(OCC(C)(C)CN(C)C)nc2c1OCc1ccc(C(=O)N2CCC3(CCC(N4CCC=C(c5cccc(N6CCC(=O)NC6=O)c5)C4)CC3)CC2)cc1	140 nM	12 nM	8.8 nM	67 nM
Cc1c(F)cc2[nH]ncc2c1-c1c(C2CC2)cc2c(N3CC[C@H]3C(N)=O)nc(OCC(C)(C)CN3CCOCC3)nc2c1OCc1ccc(C(=O)N2CCC3(CCN(CC#Cc4cc(N5CCC(=O)NC5=O)ccn4)CC3)CC2)cc1	32 nM	5.9 nM	2.1 nM	7.4 nM
Cc1c(C#CCC2CCC3(CC2)CCN(C(=O)c2ccc(COc4c(-c5c(C)c(F)cc6[nH]ncc56)c(C5CC5)cc5c(N6CC[C@H]6C(N)=O)nc(N6CCN(C)[C@@H](C)C6)nc45)cc2)CC3)cncc1N1CCC(=O)NC1=O	55 nM	20 nM	5.1 nM	13 nM
CN(C)CC(C)(C)COc1nc(N2CC[C@H]2C(N)=O)c2cc(C3CC3)c(-c3cc(O)cc(F)c3C3CC3)c(OCc3ccc(C(=O)N4CCC5(CC4)CN(c4cc6c(cc4F)c(N4CCC(=O)NC4=O)nn6C)CCO5)cc3)c2n1 (single isomer, unassigned)	160 nM	18 nM	7.3 nM	66 nM
COCCN1CCC(Oc2nc(N3CC[C@H]3C(N)=O)c3cc(C4CC4)c(-c4c(C)c(F)cc5[nH]ncc45)c(OCc4ccc(C(=O)N5CCC6(CC5)CCN(C5(COc7nccc(N8CCC(=O)NC8=O)c7C)CC5)CC6)cc4)c3n2)CC1	670 nM	36 nM	18 nM	76 nM
Cc1c(F)cc2[nH]ncc2c1-c1c(C2CC2)cc2c(N3CC[C@H]3C(N)=O)nc(OCC(C)(C)CN(C)C)nc2c1OCc1ccc(C(=O)N2CCC3(CC2)CCC(O)(CC#Cc2cccc(N4CCC(=O)NC4=O)c2F)CC3)cc1	75 nM	20 nM	4.6 nM	9.6 nM
Cc1c(F)cc2[nH]ncc2c1-c1c(C2CC2)cc2c(N3CC[C@H]3C(N)=O)nc(OCC(C)(C)CN(C)C)nc2c1OCc1ccc(C(=O)N2CCC3(CCC(C(O)C#Cc4cccc(N5CCC(=O)NC5=O)c4)CC3)CC2)cc1 (some centres unmarked)	120 nM	21 nM	6.7 nM	30 nM
COC1(CCOc2cccc(N3CCC(=O)NC3=O)c2)CCC2(CCN(C(=O)c3ccc(COc4c(-c5c(C)c(F)cc6[nH]ncc56)c(C5CC5)cc5c(N6CC[C@H]6C(N)=O)nc(OCC(C)(C)CN(C)C)nc45)cc3)CC2)CC1	51 nM	11 nM	3.9 nM	5.7 nM
Cc1c(F)cc2[nH]ncc2c1-c1c(C2CC2)cc2c(N3CC[C@H]3C(N)=O)nc(OCC(C)(C)CN(C)C)nc2c1OCc1ccc(C(=O)N2CCC3(CC2)CCN(C(C)(C)C#Cc2cccc(N4CCC(=O)NC4=O)c2)CC3)cc1	190 nM	25 nM	11 nM	39 nM
Cc1c(N2CCC(=O)NC2=O)ccnc1OCCN1CCC2(CC1)CCN(C(=O)c1ccc(COc3c(-c4c(C)c(F)cc5[nH]ncc45)c(C4CC4)cc4c(N5CCC5C(N)=O)nc(OCC(C)(C)CN5CCC(F)C5)nc34)cc1)CC2 (centres unmarked)	28 nM	2 nM	1.6 nM	7.7 nM
Cc1c(F)cc2[nH]ncc2c1-c1c(C2CC2)cc2c(N3CC[C@H]3C(N)=O)nc(OCC(C)(C)CN(C)C)nc2c1OCc1ccc(C(=O)N2CC3(CCN(CC#Cc4cccc(N5CCC(=O)NC5=O)c4)CC3)C2)cc1	200 nM	30 nM	9.6 nM	17 nM
